Test results reported in the supplement of paper PMC10849652.
The other results are listed elsewhere or left out.

Sequences of proteins named here, by UniProt entry; tags and fusion partners are left off. A change or cut given only in a name is not applied to a line headed by its entry.
UniProt P63167, whole entry, looked up: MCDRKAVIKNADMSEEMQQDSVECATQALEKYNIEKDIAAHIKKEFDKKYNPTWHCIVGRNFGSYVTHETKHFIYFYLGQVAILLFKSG
UniProt Q9NVM6: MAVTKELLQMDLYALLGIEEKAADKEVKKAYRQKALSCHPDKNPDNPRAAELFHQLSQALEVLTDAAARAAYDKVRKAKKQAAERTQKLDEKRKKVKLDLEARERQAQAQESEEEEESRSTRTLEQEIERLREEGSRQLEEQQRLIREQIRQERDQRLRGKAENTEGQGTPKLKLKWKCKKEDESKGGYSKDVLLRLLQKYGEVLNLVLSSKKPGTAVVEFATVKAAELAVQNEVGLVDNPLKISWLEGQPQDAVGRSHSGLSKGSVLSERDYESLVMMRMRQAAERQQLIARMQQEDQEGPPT
UniProt Q13011: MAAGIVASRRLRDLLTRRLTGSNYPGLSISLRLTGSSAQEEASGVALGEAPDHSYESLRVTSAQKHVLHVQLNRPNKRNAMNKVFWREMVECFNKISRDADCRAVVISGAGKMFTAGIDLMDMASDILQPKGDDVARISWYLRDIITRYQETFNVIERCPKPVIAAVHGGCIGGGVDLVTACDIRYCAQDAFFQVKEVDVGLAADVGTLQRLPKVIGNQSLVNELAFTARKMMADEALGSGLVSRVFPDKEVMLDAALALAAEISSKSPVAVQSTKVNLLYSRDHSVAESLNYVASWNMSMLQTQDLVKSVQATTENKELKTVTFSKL
UniProt Q16254: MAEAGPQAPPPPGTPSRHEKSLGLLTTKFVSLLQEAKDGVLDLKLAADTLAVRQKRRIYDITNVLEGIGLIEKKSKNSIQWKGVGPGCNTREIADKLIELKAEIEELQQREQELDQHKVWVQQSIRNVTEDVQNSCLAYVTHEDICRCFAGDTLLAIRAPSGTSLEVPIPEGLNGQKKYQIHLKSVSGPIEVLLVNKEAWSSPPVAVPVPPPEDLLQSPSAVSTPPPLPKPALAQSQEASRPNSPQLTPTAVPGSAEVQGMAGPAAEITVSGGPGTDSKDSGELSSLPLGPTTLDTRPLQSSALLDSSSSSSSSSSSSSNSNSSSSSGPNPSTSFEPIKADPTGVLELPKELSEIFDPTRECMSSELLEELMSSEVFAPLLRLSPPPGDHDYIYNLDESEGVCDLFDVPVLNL
UniProt Q7Z388: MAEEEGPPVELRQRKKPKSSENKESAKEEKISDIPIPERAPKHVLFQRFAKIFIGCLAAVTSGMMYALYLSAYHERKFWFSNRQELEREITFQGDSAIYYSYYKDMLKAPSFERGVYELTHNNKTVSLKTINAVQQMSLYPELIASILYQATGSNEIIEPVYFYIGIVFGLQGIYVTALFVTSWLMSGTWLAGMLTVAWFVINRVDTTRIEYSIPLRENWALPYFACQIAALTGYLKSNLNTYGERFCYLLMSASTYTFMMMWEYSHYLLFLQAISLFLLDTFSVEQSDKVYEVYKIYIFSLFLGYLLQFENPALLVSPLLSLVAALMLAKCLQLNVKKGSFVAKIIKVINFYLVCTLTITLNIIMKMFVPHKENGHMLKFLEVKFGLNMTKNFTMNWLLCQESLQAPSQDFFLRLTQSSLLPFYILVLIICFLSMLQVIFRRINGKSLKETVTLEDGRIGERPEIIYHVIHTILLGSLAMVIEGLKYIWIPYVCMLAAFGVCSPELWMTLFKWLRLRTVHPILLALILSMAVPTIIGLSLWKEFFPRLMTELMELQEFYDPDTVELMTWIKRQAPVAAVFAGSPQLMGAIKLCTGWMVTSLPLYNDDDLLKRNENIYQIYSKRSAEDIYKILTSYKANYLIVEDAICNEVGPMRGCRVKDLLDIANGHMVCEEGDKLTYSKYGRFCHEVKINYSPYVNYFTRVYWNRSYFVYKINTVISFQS
UniProt Q99615: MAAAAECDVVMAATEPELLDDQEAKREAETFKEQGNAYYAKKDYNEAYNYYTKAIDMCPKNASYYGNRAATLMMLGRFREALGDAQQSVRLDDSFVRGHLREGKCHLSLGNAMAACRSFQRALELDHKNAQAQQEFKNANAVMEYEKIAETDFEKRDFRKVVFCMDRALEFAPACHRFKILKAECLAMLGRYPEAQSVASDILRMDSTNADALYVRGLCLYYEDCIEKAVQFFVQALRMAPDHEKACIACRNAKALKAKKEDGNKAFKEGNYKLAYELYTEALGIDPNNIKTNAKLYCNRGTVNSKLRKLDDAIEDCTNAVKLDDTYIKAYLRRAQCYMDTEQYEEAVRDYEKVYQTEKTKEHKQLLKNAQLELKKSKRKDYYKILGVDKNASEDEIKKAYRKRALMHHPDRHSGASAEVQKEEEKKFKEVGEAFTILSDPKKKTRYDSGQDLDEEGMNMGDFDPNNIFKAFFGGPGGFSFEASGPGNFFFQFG
UniProt Q9H410: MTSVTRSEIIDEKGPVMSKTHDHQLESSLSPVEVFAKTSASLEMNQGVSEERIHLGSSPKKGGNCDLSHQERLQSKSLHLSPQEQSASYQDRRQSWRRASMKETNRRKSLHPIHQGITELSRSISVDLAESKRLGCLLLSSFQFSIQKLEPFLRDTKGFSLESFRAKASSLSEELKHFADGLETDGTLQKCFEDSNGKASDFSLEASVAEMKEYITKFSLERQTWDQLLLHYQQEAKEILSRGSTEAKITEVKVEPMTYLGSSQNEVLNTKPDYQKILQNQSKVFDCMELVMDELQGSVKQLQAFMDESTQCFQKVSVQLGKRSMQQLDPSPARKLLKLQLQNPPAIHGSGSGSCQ
UniProt Q96F86: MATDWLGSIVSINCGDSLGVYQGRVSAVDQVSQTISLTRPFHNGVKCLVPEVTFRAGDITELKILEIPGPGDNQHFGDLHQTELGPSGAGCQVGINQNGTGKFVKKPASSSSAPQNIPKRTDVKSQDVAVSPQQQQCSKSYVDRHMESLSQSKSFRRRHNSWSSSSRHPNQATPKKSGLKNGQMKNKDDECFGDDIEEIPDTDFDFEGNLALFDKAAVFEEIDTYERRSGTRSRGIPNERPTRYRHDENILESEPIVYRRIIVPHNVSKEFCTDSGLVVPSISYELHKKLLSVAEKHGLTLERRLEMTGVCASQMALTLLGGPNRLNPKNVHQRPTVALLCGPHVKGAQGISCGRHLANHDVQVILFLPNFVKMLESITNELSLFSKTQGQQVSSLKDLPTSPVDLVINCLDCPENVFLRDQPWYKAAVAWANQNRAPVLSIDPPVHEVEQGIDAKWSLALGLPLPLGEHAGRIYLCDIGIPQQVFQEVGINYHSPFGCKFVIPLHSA
UniProt Q8TEA8: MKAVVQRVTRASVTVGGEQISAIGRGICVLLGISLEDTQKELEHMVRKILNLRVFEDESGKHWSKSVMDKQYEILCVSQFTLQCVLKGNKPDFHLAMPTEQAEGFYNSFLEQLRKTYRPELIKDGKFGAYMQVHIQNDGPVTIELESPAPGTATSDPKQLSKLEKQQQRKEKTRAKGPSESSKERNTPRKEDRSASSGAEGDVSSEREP
UniProt Q9Y2G8: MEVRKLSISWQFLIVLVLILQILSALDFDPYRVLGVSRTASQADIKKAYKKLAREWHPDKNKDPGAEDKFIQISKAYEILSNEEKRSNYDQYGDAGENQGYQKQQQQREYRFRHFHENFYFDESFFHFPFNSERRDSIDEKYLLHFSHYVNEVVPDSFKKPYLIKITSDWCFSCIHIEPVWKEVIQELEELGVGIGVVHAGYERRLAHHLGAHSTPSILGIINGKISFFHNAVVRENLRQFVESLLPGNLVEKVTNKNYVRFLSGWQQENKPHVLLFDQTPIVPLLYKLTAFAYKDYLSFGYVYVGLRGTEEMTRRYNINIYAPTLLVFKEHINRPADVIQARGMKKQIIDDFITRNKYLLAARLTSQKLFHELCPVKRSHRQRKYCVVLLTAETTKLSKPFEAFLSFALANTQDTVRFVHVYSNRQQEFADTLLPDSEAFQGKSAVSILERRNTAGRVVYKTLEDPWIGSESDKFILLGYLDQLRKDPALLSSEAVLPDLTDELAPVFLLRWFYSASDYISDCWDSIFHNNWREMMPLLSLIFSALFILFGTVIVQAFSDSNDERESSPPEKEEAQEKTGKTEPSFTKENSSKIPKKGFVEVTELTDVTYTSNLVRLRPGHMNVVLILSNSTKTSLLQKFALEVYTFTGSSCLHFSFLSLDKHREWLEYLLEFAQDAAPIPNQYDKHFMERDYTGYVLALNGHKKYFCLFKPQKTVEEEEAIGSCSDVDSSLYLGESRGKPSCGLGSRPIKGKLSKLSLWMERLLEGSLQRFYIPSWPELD
UniProt Q96DA6: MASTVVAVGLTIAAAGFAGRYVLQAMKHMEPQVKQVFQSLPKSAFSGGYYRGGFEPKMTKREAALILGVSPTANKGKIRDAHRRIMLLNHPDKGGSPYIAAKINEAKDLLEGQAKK
UniProt P33316: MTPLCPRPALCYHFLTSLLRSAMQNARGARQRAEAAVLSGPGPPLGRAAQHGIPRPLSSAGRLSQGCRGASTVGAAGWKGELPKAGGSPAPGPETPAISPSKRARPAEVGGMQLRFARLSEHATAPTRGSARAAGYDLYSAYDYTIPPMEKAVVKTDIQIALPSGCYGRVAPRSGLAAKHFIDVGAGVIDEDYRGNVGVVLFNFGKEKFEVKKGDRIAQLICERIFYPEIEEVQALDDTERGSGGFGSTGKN
UniProt Q6V1X1: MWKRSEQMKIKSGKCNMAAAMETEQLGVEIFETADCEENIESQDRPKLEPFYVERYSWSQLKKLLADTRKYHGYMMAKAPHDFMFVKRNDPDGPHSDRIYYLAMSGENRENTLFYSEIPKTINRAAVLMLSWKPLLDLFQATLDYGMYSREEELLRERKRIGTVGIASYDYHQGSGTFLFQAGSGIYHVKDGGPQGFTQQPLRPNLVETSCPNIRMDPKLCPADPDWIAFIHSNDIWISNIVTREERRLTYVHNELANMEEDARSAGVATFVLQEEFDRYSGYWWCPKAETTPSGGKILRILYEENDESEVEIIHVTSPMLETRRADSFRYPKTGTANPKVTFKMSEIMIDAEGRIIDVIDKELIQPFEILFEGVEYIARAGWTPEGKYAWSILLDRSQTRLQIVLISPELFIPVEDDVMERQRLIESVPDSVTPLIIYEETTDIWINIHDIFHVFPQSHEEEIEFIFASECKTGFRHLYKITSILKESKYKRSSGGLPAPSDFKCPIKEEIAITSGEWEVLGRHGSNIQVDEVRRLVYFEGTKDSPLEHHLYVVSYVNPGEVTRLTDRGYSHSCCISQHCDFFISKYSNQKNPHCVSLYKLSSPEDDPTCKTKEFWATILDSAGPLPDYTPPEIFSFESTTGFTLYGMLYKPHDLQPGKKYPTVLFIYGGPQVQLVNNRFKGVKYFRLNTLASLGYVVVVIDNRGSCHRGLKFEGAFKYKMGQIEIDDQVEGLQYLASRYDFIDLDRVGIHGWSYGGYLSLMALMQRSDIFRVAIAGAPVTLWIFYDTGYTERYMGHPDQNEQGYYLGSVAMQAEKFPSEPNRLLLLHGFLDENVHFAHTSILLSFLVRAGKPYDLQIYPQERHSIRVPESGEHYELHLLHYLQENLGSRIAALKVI
UniProt Q8WWZ3: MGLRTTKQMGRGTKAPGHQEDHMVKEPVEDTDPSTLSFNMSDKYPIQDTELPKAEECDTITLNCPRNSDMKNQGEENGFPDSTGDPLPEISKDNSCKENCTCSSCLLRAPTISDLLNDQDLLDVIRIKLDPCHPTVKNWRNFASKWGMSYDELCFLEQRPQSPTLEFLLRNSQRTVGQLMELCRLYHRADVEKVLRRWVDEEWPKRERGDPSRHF
UniProt Q5QJE6: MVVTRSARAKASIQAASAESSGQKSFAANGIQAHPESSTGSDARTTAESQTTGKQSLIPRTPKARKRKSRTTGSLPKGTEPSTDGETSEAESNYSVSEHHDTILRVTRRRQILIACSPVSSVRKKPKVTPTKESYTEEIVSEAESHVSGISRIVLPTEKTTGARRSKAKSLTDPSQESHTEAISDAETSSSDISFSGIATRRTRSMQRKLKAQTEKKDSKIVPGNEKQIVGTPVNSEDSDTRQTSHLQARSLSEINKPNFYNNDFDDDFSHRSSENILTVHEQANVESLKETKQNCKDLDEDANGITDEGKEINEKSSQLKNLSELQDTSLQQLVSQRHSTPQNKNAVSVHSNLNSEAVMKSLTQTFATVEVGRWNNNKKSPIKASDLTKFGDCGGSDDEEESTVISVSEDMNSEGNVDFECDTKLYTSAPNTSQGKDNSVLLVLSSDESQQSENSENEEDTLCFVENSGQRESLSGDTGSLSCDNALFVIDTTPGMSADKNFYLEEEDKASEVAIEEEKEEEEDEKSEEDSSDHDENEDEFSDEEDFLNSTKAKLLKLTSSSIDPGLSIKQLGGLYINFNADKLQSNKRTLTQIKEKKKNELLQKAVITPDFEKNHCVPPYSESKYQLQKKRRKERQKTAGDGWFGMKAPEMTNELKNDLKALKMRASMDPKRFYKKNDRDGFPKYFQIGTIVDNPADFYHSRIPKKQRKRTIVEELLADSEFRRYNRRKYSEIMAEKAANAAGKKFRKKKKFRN

Legend:
Experiment in all cases: log2 fold change, soluble protein after heating vs DMSO (PISA); higher = thermal stabilisation; K562 cells, 10 uM, 30 min; active = over 0.2 and 3.5 SD of the protein, either way, in both replicates (recomputed)
saracatinib = compound: CN1CCN(CCOc2cc(OC3CCOCC3)c3c(Nc4c(Cl)ccc5c4OCO5)ncnc3c2)CC1 [saracatinib]
How it was run: (§1)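 K562 cells (2×10^6 cells/mL) were treated with 10 μM compound for 30 min, and aliquots were heated for 3 min over 48°C-58°C. Pooled aliquots were extracted in PBS with 0.5% NP-40 at 4°C, and the supernatant after 21,000xg for 90 min was measured by TMTpro 16plex LC-MS/MS with channel sums equalised. Reported thermal stability, relative to control samples and from duplicates, is a log2 fold change.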

sotrastaurin = compound: CN1CCN(c2nc(C3=C(c4c[nH]c5ccccc45)C(=O)NC3=O)c3ccccc3n2)CC1 [sotrastaurin]
How it was run: as §1

alvocidib = compound: CN1CC[C@H](c2c(O)cc(O)c3c(=O)cc(-c4ccccc4Cl)oc23)[C@H](O)C1 [alvocidib]
How it was run: as §1

Tubastatin A = compound: CN1CCc2c(c3ccccc3n2Cc2ccc(C(=O)NO)cc2)C1 [Tubastatin A]
How it was run: as §1

[1] = compound: CNC(=O)C1=CC=CC=C1NC2=NC(=NC=C2Cl)NC3=C(C=C(C=C3)N4CCOCC4)OC
How it was run: as §1

defactinib = compound: CNC(=O)c1ccc(Nc2ncc(C(F)(F)F)c(NCc3nccnc3N(C)S(C)(=O)=O)n2)cc1 [defactinib]
How it was run: as §1

rucaparib = compound: CNCc1ccc(-c2[nH]c3cc(F)cc4c3c2CCNC4=O)cc1 [rucaparib]
How it was run: as §1

[2] = compound: CNc1nc(-c2ccc3c(N)n[nH]c3c2)cc(N2C[C@@H](C(=O)NC3CCCCC3)CC[C@H]2C)n1
How it was run: as §1

encorafenib = compound: COC(=O)N[C@@H](C)CNc1nccc(-c2cn(C(C)C)nc2-c2cc(Cl)cc(NS(C)(=O)=O)c2F)n1 [encorafenib]
How it was run: as §1

[3] = compound: COC(=O)[C@H](CCSC)NC(=O)C1=C(C=C(C=C1)NC[C@H](CS)N)C2=CC=CC=C2
How it was run: as §1

[4] = compound: COC1=CC=C(C=C1)CN2C=CC3=C2C=C(C=C3)C(=O)NO
How it was run: as §1

filanesib = compound: CON(C)C(=O)N1N=C(c2cc(F)ccc2F)S[C@@]1(CCCN)c1ccccc1 [filanesib]
How it was run: as §1

zotarolimus = compound: CO[C@H]1C[C@@H]2CC[C@@H](C)[C@@](O)(O2)C(=O)C(=O)N2CCCC[C@H]2C(=O)O[C@H]([C@H](C)C[C@@H]2CC[C@H](n3cnnn3)[C@H](OC)C2)CC(=O)[C@H](C)/C=C(\C)[C@@H](O)[C@@H](OC)C(=O)[C@H](C)C[C@H](C)/C=C/C=C/C=C/1C [zotarolimus]
How it was run: as §1

idasanutlin = compound: COc1cc(C(=O)O)ccc1NC(=O)[C@@H]1N[C@@H](CC(C)(C)C)[C@](C#N)(c2ccc(Cl)cc2F)[C@H]1c1cccc(Cl)c1F [idasanutlin]
How it was run: as §1

alisertib = compound: COc1cc(Nc2ncc3c(n2)-c2ccc(Cl)cc2C(c2c(F)cccc2OC)=NC3)ccc1C(=O)O [alisertib]
How it was run: as §1

[5] = compound: COc1cc2nc(-c3cc(F)ccc3O)nc(N[C@@H]3CNC[C@H]3C(C)(C)O)c2cc1OC
How it was run: as §1

gefitinib = compound: COc1cc2ncnc(Nc3ccc(F)c(Cl)c3)c2cc1OCCCN1CCOCC1 [gefitinib]
How it was run: as §1

[6] = compound: COc1cccc2cc(-c3nc([C@H]4CC[C@H](C(=O)O)CC4)n4ncnc(N)c34)[nH]c12
How it was run: as §1

lapatinib = compound: CS(=O)(=O)CCNCc1ccc(-c2ccc3ncnc(Nc4ccc(OCc5cccc(F)c5)c(Cl)c4)c3c2)o1 [lapatinib]
How it was run: as §1

pictilisib = compound: CS(=O)(=O)N1CCN(Cc2cc3nc(-c4cccc5[nH]ncc45)nc(N4CCOCC4)c3s2)CC1 [pictilisib]
How it was run: as §1

Measured: log2 fold change

DYNLL1 (UniProt P63167)
inactive: saracatinib -0.036 | sotrastaurin -0.067 | alvocidib -0.035 | Tubastatin A 0.018 | [1] -0.007 | defactinib -0.051 | rucaparib 0.146 | [2] 0.026 | encorafenib -0.02 | [3] -0.122 | [4] 0.04 | filanesib -0.006 | zotarolimus 0.091 | idasanutlin 0.067 | alisertib 0.071 | [5] 0.007 | gefitinib 0.014 | [6] -0.024 | lapatinib 0.002 | pictilisib -0.113

DNAJC17 (UniProt Q9NVM6)
inactive: saracatinib -0.006 | sotrastaurin 0.034 | alvocidib -0.022 | Tubastatin A 0.026 | [1] -0.046 | defactinib -0.057 | rucaparib -0.051 | [2] 0.005 | encorafenib 0.03 | [3] -0.011 | [4] 0.063 | filanesib -0.036 | zotarolimus -0.009 | idasanutlin -0.068 | alisertib -0.061 | [5] 0.026 | gefitinib 0.026 | [6] 0.002 | lapatinib -0.118 | pictilisib 0.121

ECH1 (UniProt Q13011)
inactive: saracatinib -0.037 | [1] 0.122 | defactinib -0.023 | rucaparib -0.012 | [2] -0.031 | encorafenib -0.035 | [3] -0.024 | [4] -0.008 | filanesib -0.215 | zotarolimus -0.05 | idasanutlin -0.134 | alisertib 0.033 | [5] 0.045 | gefitinib -0.032 | [6] 0.02 | lapatinib -0.011 | pictilisib 0.033
active: sotrastaurin 0.727 | Tubastatin A 0.519

E2F4 (UniProt Q16254)
inactive: saracatinib -0.012 | sotrastaurin -0.056 | Tubastatin A 0.028 | [1] -0.045 | defactinib -0.122 | rucaparib -0.025 | [2] -0.02 | encorafenib -0.002 | [3] -0.042 | [4] -0.024 | filanesib -0.034 | zotarolimus 0.042 | idasanutlin 0.006 | alisertib -0.056 | [5] -0.098 | gefitinib 0.003 | [6] 0.059 | lapatinib 0.047 | pictilisib 0.044

DOCK1 (UniProt Q14185)
inactive: saracatinib -0.059 | sotrastaurin -0.109 | alvocidib 0.053 | [1] -0.071 | defactinib -0.022 | rucaparib -0.228 | [2] -0.104 | encorafenib 0.109 | [3] 0.053 | filanesib -0.081 | zotarolimus -0.24 | idasanutlin 0.094 | [5] 0.411 | lapatinib -0.206

DPY19L4 (UniProt Q7Z388)
inactive: saracatinib 0.054 | sotrastaurin 0.24 | alvocidib -0.1 | Tubastatin A 0.039 | [1] -0.062 | defactinib -0.126 | rucaparib 0.116 | [2] 0.27 | encorafenib -0.097 | [3] 0.028 | [4] -0.024 | filanesib -0.073 | zotarolimus -0.045 | idasanutlin -0.151 | alisertib -0.12 | [5] 0.054 | gefitinib -0.152 | [6] 0.072 | lapatinib -0.154 | pictilisib 0.009

DNAJC7 (UniProt Q99615)
inactive: saracatinib 0.001 | sotrastaurin -0.05 | Tubastatin A 0.002 | [1] 0.034 | defactinib -0.072 | rucaparib -0.016 | [2] 0.056 | encorafenib 0.045 | [3] -0.003 | [4] 0.037 | filanesib -0.025 | zotarolimus 0.07 | idasanutlin -0.043 | alisertib -0.044 | [5] -0.031 | gefitinib 0.068 | [6] -0.031 | lapatinib 0 | pictilisib 0.014

DSN1 (UniProt Q9H410)
inactive: saracatinib 0.032 | sotrastaurin -0.042 | Tubastatin A 0.082 | [1] -0.031 | defactinib -0.146 | rucaparib 0.076 | [2] 0.016 | encorafenib 0.02 | [3] 0.029 | [4] 0.032 | filanesib 0.048 | zotarolimus 0.114 | idasanutlin -0.013 | alisertib 0.018 | [5] -0.017 | gefitinib 0.113 | [6] -0.23 | lapatinib -0.028

EDC3 (UniProt Q96F86)
inactive: saracatinib -0.041 | sotrastaurin -0.304 | Tubastatin A 0.053 | [1] -0.021 | defactinib -0.04 | rucaparib 0.015 | [2] -0.237 | encorafenib 0.048 | [3] 0.005 | [4] 0.02 | filanesib 0.112 | zotarolimus -0.156 | idasanutlin 0.065 | alisertib 0.02 | [5] 0.046 | gefitinib -0.013 | [6] -0.337 | lapatinib -0.019 | pictilisib -0.187

DTD1 (UniProt Q8TEA8)
inactive: saracatinib 0.056 | sotrastaurin 0.033 | alvocidib 0.055 | Tubastatin A 0.025 | [1] -0.01 | defactinib -0.081 | rucaparib -0.054 | [2] -0.086 | encorafenib 0 | [3] 0.004 | [4] -0.014 | filanesib -0.03 | zotarolimus -0.042 | idasanutlin 0.004 | alisertib -0.063 | [5] 0.075 | gefitinib 0.026 | [6] 0.025 | lapatinib -0.023 | pictilisib 0

DNAJC16 (UniProt Q9Y2G8)
inactive: saracatinib -0.117 | sotrastaurin -0.019 | alvocidib 0.047 | Tubastatin A -0.046 | [1] 0.102 | defactinib 0.157 | rucaparib 0.157 | [2] 0.034 | encorafenib 0.094 | [3] -0.081 | [4] -0.059 | filanesib -0.081 | zotarolimus -0.106 | idasanutlin 0.027 | [5] 0.001 | gefitinib 0.007 | lapatinib 0.057 | pictilisib 0.022

DNAJC19 (UniProt Q96DA6)
active: [5] -0.205
inactive: saracatinib 0.025 | sotrastaurin -0.029 | Tubastatin A -0.038 | [1] 0.003 | defactinib -0.027 | rucaparib 0.01 | [2] -0.028 | encorafenib -0.044 | [3] -0.012 | [4] 0.096 | filanesib -0.155 | zotarolimus 0.016 | idasanutlin -0.004 | alisertib -0.022 | gefitinib 0.006 | [6] 0.045 | lapatinib -0.012 | pictilisib 0.025

DUT (UniProt P33316)
inactive: saracatinib -0.002 | sotrastaurin 0.066 | alvocidib -0.008 | Tubastatin A -0.005 | [1] -0.041 | defactinib 0.029 | rucaparib 0.045 | [2] -0.004 | encorafenib -0.016 | [3] -0.011 | [4] 0.005 | filanesib -0.054 | zotarolimus -0.027 | idasanutlin -0.039 | alisertib -0.129 | [5] 0.072 | gefitinib -0.023 | [6] 0.068 | lapatinib -0.024 | pictilisib 0.053

DPP8 (UniProt Q6V1X1)
active: rucaparib -0.572
inactive: saracatinib -0.002 | sotrastaurin 0.175 | Tubastatin A 0.003 | [1] -0.044 | defactinib 0.082 | [2] -0.021 | encorafenib 0.026 | [3] 0.058 | [4] -0.089 | filanesib 0.048 | zotarolimus 0.028 | idasanutlin -0.112 | alisertib -0.01 | [5] 0.041 | gefitinib 0.042 | [6] 0.037 | lapatinib -0.077 | pictilisib 0.022

Pulled one by one from above, two records:
DTD1 (UniProt Q8TEA8)
inactive: saracatinib 0.056 | sotrastaurin 0.033 | alvocidib 0.055 | Tubastatin A 0.025 | [1] -0.01 | defactinib -0.081 | rucaparib -0.054 | [2] -0.086 | encorafenib 0 | [3] 0.004 | [4] -0.014 | filanesib -0.03 | zotarolimus -0.042 | idasanutlin 0.004 | alisertib -0.063 | [5] 0.075 | gefitinib 0.026 | [6] 0.025 | lapatinib -0.023 | pictilisib 0

DNAJC19 (UniProt Q96DA6)
active: [5] -0.205
inactive: saracatinib 0.025 | sotrastaurin -0.029 | Tubastatin A -0.038 | [1] 0.003 | defactinib -0.027 | rucaparib 0.01 | [2] -0.028 | encorafenib -0.044 | [3] -0.012 | [4] 0.096 | filanesib -0.155 | zotarolimus 0.016 | idasanutlin -0.004 | alisertib -0.022 | gefitinib 0.006 | [6] 0.045 | lapatinib -0.012 | pictilisib 0.025

The list continues:

EDARADD (UniProt Q8WWZ3)
inactive: saracatinib 0.089 | sotrastaurin 0.081 | alvocidib -0.008 | Tubastatin A -0.106 | [1] -0.058 | defactinib -0.009 | rucaparib 0.018 | [2] -0.028 | encorafenib -0.038 | [3] 0.059 | [4] -0.146 | filanesib 0.003 | zotarolimus 0.019 | idasanutlin 0.022 | alisertib -0.006 | [5] 0.063 | gefitinib 0.02 | [6] 0 | lapatinib -0.05 | pictilisib 0.085

DNTTIP2 (UniProt Q5QJE6)
inactive: saracatinib -0.038 | sotrastaurin -0.104 | Tubastatin A 0.145 | [1] 0.011 | defactinib -0.131 | rucaparib 0.171 | [2] 0.03 | encorafenib 0.067 | [3] 0.121 | [4] -0.095 | filanesib 0.217 | zotarolimus 0.061 | idasanutlin 0.267 | alisertib -0.072 | [5] -0.09 | gefitinib -0.014 | [6] -0.002 | lapatinib 0 | pictilisib 0.008
